Laboratory results from article PMC6063800 (Peptides, 2018).
Counter-ions that a name gives are not always drawn.

System: Staphylococcus epidermidis 1457
Experiment: Antibacterial broth microdilution MIC
Type: cell-based
Details: Staphylococcus epidermidis, 1457, 20 h, read-out: MIC, SE

For `CN[C@H](CC(C)C)C(=O)N[C@H]1C(=O)N[C@@H](CC(N)=O)C(=O)N[C@H]2C(=O)N[C@H]3C(=O)N[C@H](C(=O)N[C@H](C(=O)O)c4cc(O)cc(O)c4-c4cc3ccc4O)[C@H](O)c3ccc(c(Cl)c3)Oc3cc2cc(c3O[C@@H]2O[C@H](CO)[C@@H](O)[C@H](O)[C@H]2O[C@H]2C[C@](C)(N)[C@H](O)[C@H](C)O2)Oc2ccc(cc2Cl)[C@H]1O` [Vancomycin, vancomycin hydrochloride, reference compound], the MIC was 1.6 µM.
